The subject of this experiment is BDF1 mice, P388 leukemia ip, median survival T/C. Briefly: NCI In Vivo Anticancer Drug Screen. Data for tumor model P388 Leukemia (intraperitoneal) in B6D2F1 (BDF1) mice. Conditions: T/C endpoint: median survival time, higher T/C = longer survival. The method, boiled down: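 Read-out is survival of treated animals expressed relative to the vehicle group, as a T/C ratio.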

The mark [1] stands for this setting: dose: 200.0 mg/kg/injection, schedule: Q04DX003 (ip), vehicle: saline with Tween-80.
Setting [2] is: dose: 200.0 mg/kg/injection, schedule: Q01DX009 (ip), vehicle: Klucel (hydroxypropylcellulose) (HPC).
Setting [3] is: dose: 200.0 mg/kg/injection, schedule: Q01DX009 (ip), vehicle: saline.
The mark [4] stands for this setting: dose: 400.0 mg/kg/injection, schedule: Q01DX009 (ip), vehicle: saline with Tween-80.
[5] abbreviates: dose: 50.0 mg/kg/injection, schedule: Q01DX009 (ip), vehicle: saline.
The mark [6] stands for this setting: dose: 100.0 mg/kg/injection, schedule: Q01DX009 (ip), vehicle: Klucel (hydroxypropylcellulose) (HPC).
The mark [7] stands for this setting: dose: 100.0 mg/kg/injection, schedule: Q01DX001 (ip), vehicle: saline with Tween-80.
The mark [8] stands for this setting: dose: 200.0 mg/kg/injection, schedule: Q01DX001 (ip), vehicle: saline with Tween-80.
Setting [9] is: dose: 50.0 mg/kg/injection, schedule: Q01DX009 (ip), vehicle: Klucel (hydroxypropylcellulose) (HPC).
Where [10] appears, read: dose: 100.0 mg/kg/injection, schedule: Q01DX009 (ip), vehicle: saline with Tween-80.
Where [11] appears, read: dose: 200.0 mg/kg/injection, schedule: Q01DX009 (ip), vehicle: saline with Tween-80.

The list is a part of this screen's results and no random one: it is rich in T/C values a quarter to a half above the control, in often repeated tests (any T/C) and in doses without a T/C. Other doses and runs of a compound stand elsewhere. T/C is the treated group as % of the vehicle group. Some entries give survivors of the animals treated and no T/C: the source holds a T/C of zero for them, seemingly a mark for toxic or unscored doses. Some survivor counts are full or nearly so, which does not show that the dose was tolerated: survival well below the control is almost never listed, so the zero probably covers shortened survival too. Counts of survivors are from the toxicity check (mostly the fifth day) where no day follows; animals may have died later. Schedules are NCI's codes, read here as Q, the interval in days (D) or hours (H), X, the number of doses. Where survival is the endpoint, the PubChem record calls one and a half times the control and up active, and a quarter to a half above the control has no call in these data; cut-offs in other NCI protocols can differ. Some entries hold several experiments; the values are given in rising order. Some T/C values carry the count of animals alive at the toxicity check (mostly the fifth day); without a count, all were alive then.

With `CC(=O)OCC(COC(C)=O)=C1N=C(c2ccccc2)OC1=O`, the T/C under setting [1] is 127 % of control.

As to `CN(C)/N=N/c1[nH]ncc1C(N)=O`, the survivor count under setting [2] is 5 of 6 and the survivor count (dose: 400.0 mg/kg/injection, schedule: Q04DX003 (ip), vehicle: alcohol) is 6 of 6.

Consider `CCOC(=O)CCC#N`, for which the T/C under setting [3] was 134 % of control.

`O=C1C=C(c2ccccc2)C(O)(c2ccccc2)C1` (centres undefined): the survivor count under setting [4] is listed as 0 of 6.

For `CC(=O)CC(C)(C)c1ccccc1`, the T/C (dose: 100.0 mg/kg/injection, schedule: Q01DX009 (ip), vehicle: saline) is 129 % of control [4 of 6 alive] and the T/C (dose: 400.0 mg/kg/injection, schedule: Q01DX009 (ip), vehicle: saline) is 139 % of control [5 of 6 alive].

As to `CC(C)N1c2c(nc(N)[nH]c2=O)NCC1CNc1ccc(C(=O)NC(CCC(=O)O)C(=O)O)cc1` (centres undefined), the T/C under setting [3] was 127 % of control.

With `CC[As](=O)(O)CC`, the survivor count is reported as 6 of 6 under setting [5]; 6 of 6 (dose: 88.0 mg/kg/injection, schedule: Q01DX009 (ip), vehicle: saline); 6 of 6 (dose: 100.0 mg/kg/injection, schedule: Q04DX003 (ip), vehicle: saline). For the same compound, the T/C reads like this: under setting [3], 131, 145, 149 % of control; (dose: 300.0 mg/kg/injection, schedule: Q01DX009 (ip), vehicle: saline) 131 % of control.

With `CC1CC(=O)C(O)C2(C)C1CC1OC(=O)C(OC(=O)c3ccccc3)C3C(C)C(O)C4(O)OCC13C42` (centres undefined), the T/C was 127 % of control (dose: 0.5 mg/kg/injection, schedule: Q01DX009 (ip), vehicle: saline with Tween-80) and 138 % of control (dose: 32.0 mg/kg/injection, schedule: Q01DX009 (ip), vehicle: saline with Tween-80).

On to `O=[As]O`, for which the survivor count is 4 of 6 (dose: 16.0 mg/kg/injection, schedule: Q01DX009 (ip), vehicle: saline) and 0 of 6 (dose: 32.0 mg/kg/injection, schedule: Q01DX009 (ip), vehicle: saline).

`COC(=O)c1cccc(OC)c1C(=O)OC`: under “dose: 400.0 mg/kg/injection, schedule: Q04DX002 (ip), vehicle: saline with Tween-80”, the survivor count is 6 of 6.

For the compound `COC1=C(OC)C23CCc4ccc(OC)c(O)c4C2(CCN3C)CC1=O` (centres undefined), the survivor count (dose: 200.0 mg/kg/injection, schedule: Q01DX010 (ip), vehicle: carboxymethylcellulose (CMC)) is on record as 0 of 6.

On to `COC(=O)c1ccc(-c2cc(Cl)c3cc(S(=O)(=O)F)ccc3n2)cc1`, for which the survivor count under setting [4] is 6 of 6.

Take `C=C(C(=O)OC1C/C(C)=C/C(O)C/C(C)=C/C2OC(=O)C(=C)C21)C(C)O` (centres undefined): the survivor count (dose: 200.0 mg/kg/injection, schedule: Q04DX002 (ip), vehicle: Klucel (hydroxypropylcellulose) (HPC)) is 6 of 6 and the survivor count (dose: 400.0 mg/kg/injection, schedule: Q04DX002 (ip), vehicle: Klucel (hydroxypropylcellulose) (HPC)) is recorded as 0 of 6.

Take `C=C1C(C2(C)C(OC(C)=O)CC(=O)OC(C)(COC(C)=O)C2CC(=O)OC)C(OC=O)C(OC(=O)C(O)C(C)CC)C2(C)C(c3ccoc3)CC(=O)C12O` (centres undefined): the survivor count (dose: 15.0 mg/kg/injection, schedule: Q01DX009 (ip), vehicle: Klucel (hydroxypropylcellulose) (HPC)) is 5 of 6.

For the compound `C[C@]12CCC(=O)C(O)=C1CC[C@@H]1[C@@H]2CC[C@@]2(C)[C@H]1CC[C@]2(C)O`, the T/C (dose: 100.0 mg/kg/injection, schedule: Q01DX009 (ip), vehicle: saline sonified) is 127 % of control.

Take `NC(N)=N/N=C\c1c2ccccc2cc2ccccc12`: the T/C is, setting by setting: (dose: 0.78 mg/kg/injection, schedule: Q01DX009 (ip), vehicle: other) 125 % of control; (dose: 1.56 mg/kg/injection, schedule: Q01DX009 (ip), vehicle: other) 149 % of control.

In the case of `COc1cc(C=Nc2ccc(-c3nc(Cc4ccccc4)sc3C)cc2)ccc1N(CCCl)CCCl`, the T/C (dose: 12.5 mg/kg/injection, schedule: Q01DX009 (ip), vehicle: Klucel (hydroxypropylcellulose) (HPC)) is 142 % of control [5 of 6 alive]. Besides, under setting [6], the survivor count is 5 of 6.

For `CCCCCCCCCCCCCCCCOc1c(Br)cc(Br)cc1Br`, the survivor count runs as follows: under setting [7], 6 of 6; under setting [8], 6 of 6.

For the compound `NC(=O)c1nn(C2OC(CO)C(O)C2O)c2ncnc(N)c12` (centres undefined), the survivor count is listed as 3 of 6 (dose: 25.0 mg/kg/injection, schedule: Q01DX009 (ip), vehicle: Klucel (hydroxypropylcellulose) (HPC)); 2 of 6 under setting [9]; 0 of 6 under setting [6]; 0 of 6 under setting [2].

Turning to `O=C(Nc1ccc(C2=NCCN2)cc1)Nc1cccc(NC(=O)Nc2ccc(C3=NCCN3)cc2)c1`, the T/C (dose: 480.0 mg/kg/injection, schedule: Q01DX010 (ip), vehicle: saline) is 125 % of control.

`CCC(=O)O[C@H]1CC[C@H]2[C@@H]3CC(=C(Br)Br)C4=CC(=O)CC[C@]4(C)[C@H]3CC[C@]12C`: the survivor count reads like this: under setting [10], 6 of 6; under setting [11], 6 of 6.

On to `CCCCN(CCCC)CC(O)c1ccnc2cc3c(cc12)OCO3` (centres undefined), for which the survivor count reads like this: under setting [8], 1 of 6; (dose: 400.0 mg/kg/injection, schedule: Q01DX001 (ip), vehicle: saline with Tween-80) 0 of 6.

On to `CCCCCCCC(=O)Oc1c(Cl)c(Cl)c(C#N)c(Cl)c1C#N`, for which the T/C under setting [10] is 134 % of control [5 of 6 alive]. Moreover, the survivor count under setting [11] was 0 of 6.

For the compound `CC(=O)O/C(C#N)=C1\CCCC\C1=C(\C#N)OC(C)=O`, the survivor count reads like this: (dose: 50.0 mg/kg/injection, schedule: Q01DX001 (ip), vehicle: saline with Tween-80) 2 of 6; under setting [7], 0 of 6.

In the case of `CCCCCCCCCCCCS(=O)(=O)O` (tested in a mixture with another compound), for the setting “dose: 400.0 mg/kg/injection, schedule: Q04DX003 (ip), vehicle: Klucel (hydroxypropylcellulose) (HPC)”, the survivor count is given as 2 of 5.

Regarding `Clc1nc2ccccc2n2nnnc12`, the survivor count under setting [5] is 5 of 7.

`CCN(CC)CCNc1ccc([N+](=O)[O-])c2sc3ccccc3c(=O)c12`: under “dose: 200.0 mg/kg/injection, schedule: Q01DX009 (ip), vehicle: saline sonified”, the survivor count is reported as 6 of 6.

Regarding `O=C(C[n+]1cc2ccccc2c2ccccc21)c1ccccc1`, the T/C under setting [9] was 133 % of control. Besides, the survivor count reads like this: (dose: 75.0 mg/kg/injection, schedule: Q01DX009 (ip), vehicle: Klucel (hydroxypropylcellulose) (HPC)) 4 of 6; (dose: 150.0 mg/kg/injection, schedule: Q01DX009 (ip), vehicle: Klucel (hydroxypropylcellulose) (HPC)) 4 of 6; (dose: 225.0 mg/kg/injection, schedule: Q01DX009 (ip), vehicle: Klucel (hydroxypropylcellulose) (HPC)) 0 of 6.

Turning to `COc1cccc2c1C(=O)c1c(O)c(COC3CC(N)C(O)C(C)O3)cc(O)c1C2=O` (centres undefined), the survivor count by setting is: (dose: 50.0 mg/kg/injection, schedule: Q01DX009 (ip), vehicle: water) 3 of 3; (dose: 100.0 mg/kg/injection, schedule: Q01DX009 (ip), vehicle: water) 0 of 3; (dose: 200.0 mg/kg/injection, schedule: Q01DX009 (ip), vehicle: water) 0 of 3.

On to `CC(C)=N/N=C(/N)[Se]`, for which the survivor count was 0 of 6 (dose: 50.0 mg/kg/injection, schedule: Q01DX009 (ip), vehicle: saline with Tween-80); 0 of 6 under setting [10]; 0 of 6 under setting [11].

As for `C1CSCCO1.[Cu+2].[O-][Cl+3]([O-])([O-])O`, the survivor count was 0 of 6 (dose: 100.0 mg/kg/injection, schedule: Q04DX003 (ip), vehicle: saline with Tween-80); 0 of 6 under setting [1]; 0 of 6 (dose: 400.0 mg/kg/injection, schedule: Q04DX003 (ip), vehicle: saline with Tween-80).

Values taken from PubChem BioAssay AID328 (DTP/NCI, 2004).
